From publication PMC10762078, “Role of UPF1-LIN28A interaction during early differentiation of pluripotent stem cells” (Nature Communications, 2024)
These are yes or no findings as the source states them, for the method shown. In cells and extracts the contact can be indirect. Binding calls can cover weak binding; strength is not graded here. Where a sequence is shown, tags or fusion partners need not be part of it.

Chains of the proteins cited; added tags and fusions are not shown. Lines headed by an entry give the natural chain unless they say otherwise; changes in a name come on top.
UniProt Q92900: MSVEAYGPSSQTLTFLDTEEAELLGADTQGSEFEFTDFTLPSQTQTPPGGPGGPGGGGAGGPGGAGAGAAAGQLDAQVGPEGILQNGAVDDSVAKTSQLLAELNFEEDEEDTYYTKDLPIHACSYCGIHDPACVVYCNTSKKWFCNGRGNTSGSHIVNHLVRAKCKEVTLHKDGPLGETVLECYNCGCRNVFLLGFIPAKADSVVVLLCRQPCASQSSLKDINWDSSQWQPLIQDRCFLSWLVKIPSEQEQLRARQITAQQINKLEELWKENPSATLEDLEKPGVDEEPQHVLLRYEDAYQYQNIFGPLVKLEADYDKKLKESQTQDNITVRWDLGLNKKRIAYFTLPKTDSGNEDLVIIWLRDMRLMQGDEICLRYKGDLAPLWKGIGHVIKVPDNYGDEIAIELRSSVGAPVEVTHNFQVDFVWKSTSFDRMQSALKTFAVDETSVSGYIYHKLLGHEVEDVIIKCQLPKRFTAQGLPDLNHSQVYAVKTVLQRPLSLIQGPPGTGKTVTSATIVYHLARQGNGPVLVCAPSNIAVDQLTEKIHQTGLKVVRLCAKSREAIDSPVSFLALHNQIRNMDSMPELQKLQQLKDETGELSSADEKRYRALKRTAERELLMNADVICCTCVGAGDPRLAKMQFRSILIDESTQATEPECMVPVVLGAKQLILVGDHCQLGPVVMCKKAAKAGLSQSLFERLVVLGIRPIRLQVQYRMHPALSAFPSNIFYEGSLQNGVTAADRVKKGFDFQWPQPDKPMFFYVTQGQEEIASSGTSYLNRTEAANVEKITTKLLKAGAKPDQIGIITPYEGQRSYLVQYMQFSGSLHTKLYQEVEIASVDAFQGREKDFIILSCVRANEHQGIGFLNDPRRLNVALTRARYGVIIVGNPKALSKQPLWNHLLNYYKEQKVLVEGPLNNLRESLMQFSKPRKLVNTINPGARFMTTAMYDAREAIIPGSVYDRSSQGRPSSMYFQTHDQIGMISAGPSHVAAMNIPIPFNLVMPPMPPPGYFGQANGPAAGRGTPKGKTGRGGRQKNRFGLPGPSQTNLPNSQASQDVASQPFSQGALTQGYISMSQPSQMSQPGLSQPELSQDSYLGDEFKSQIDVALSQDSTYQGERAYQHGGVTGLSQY

Target: HA-UPF1 (UniProt Q92900)
Test: co-IP; co-IP of LIN28A with HA-UPF1, with or without GST-MYC-UPF1 as competitor (Supplementary Fig. 1f)

B1: FLAG-LIN28A (protein, UniProt Q9H9Z2 1-209)
chain: MGSVSNQQFAGGCAKAAEEAPEEAPEDAARAADEPQLLHGAGICKWFNVRMGFGFLSMTARAGVALDPPVDVFVHQSKLHMEGFRSLKEGEAVEFTFKKSAKGLESIRVTGPGGVFCIGSERRPKGKSMQKRRSKGDRCYNCGGLDHHAKECKLPPQPKKCHFCQSISHMVASCPLKAQQGPSAQGKPTYFREEEEEIHSPTLLPEAQN
For B1, which binding is on record?
Its binding is “binds”.
